According to the supplement of paper PMC10338343:
± gives the standard deviation. The list shows a part of the results, in another mix than the full data. The uncertainty is large for many entries. The list shows a part of the results.

Tests used:
[1] = test system: MIWI (PIWIL1) piRISC loaded with L1MC piRNA (30 nt); experiment: pre-steady-state target cleavage rate (min^-1); higher = faster piRNA-guided slicing of the target; conditions: guide: L1MC piRNA 5'p-UAACUAAAUACUAUGCAAGCUGUAGGUCCU
In short: (§1)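 Active affinity-purified piRISC (1 nM) loaded with one synthetic guide was mixed with a transcribed, DNA-blocked target RNA library (0.1 nM), with or without 500 nM GTSF1 partner protein, in HEPES–potassium acetate buffer at 33 °C for 0–8 or 0–960 min. Uncleaved targets were sequenced, normalised to depth and to weakly complementary targets, and pooled across three trials, with k3 capped at 0.0001 min^-1. The pre-steady-state cleavage rate was determined with a burst-and-steady-state fit.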

[2] = test system: EfPiwi piRISC loaded with L1MC piRNA (26 nt); experiment: pre-steady-state target cleavage rate (min^-1); guide: L1MC piRNA 5'p-UAACUAAAUACUAUGCAAGCUGUAGG; MIWI and MILI are mouse PIWI proteins and EfPiwi is from a freshwater sponge; tags in brackets are library labels; higher = faster piRNA-guided slicing of the target
In short: as §1

[3] = auxiliary factor: none (no GTSF1)
[4] = auxiliary factor: 500 nM Ephydatia muelleri Gtsf1
[5] = auxiliary factor: none (no Gtsf1)
[6] = auxiliary factor: 500 nM mouse GTSF1

Question: UCCUGGAUGUGCUUGCAAUGUAUUUAGUAA was tested. Which “pre-steady-state target cleavage rate” value [1, 3] did it give?
Answer: 0.00247 ± 0.0027

Question: And the “pre-steady-state target cleavage rate” value [2, 4]?
Answer: 0.000339 ± 0.011

Question: Which results are given for UCCUGGAUGUCGAACGUAUGUAUUUUGUAA?
Answer: pre-steady-state target cleavage rate [1, 3]: 0.000111 ± 0.048; pre-steady-state target cleavage rate [2, 5]: 0.000113 ± 0.036

Question: Which “pre-steady-state target cleavage rate” value [1, 3] does the source give for UCCUGGAUGUCGAAGCAUAGUACUUUAGUUA here?
Answer: 0.000804 ± 0.0066

Question: And the “pre-steady-state target cleavage rate” value [2, 4]?
Answer: 0.00136 ± 0.006

Question: With UCCUCCUACAGCUUCGAUAGUAUUUAGUUA as the sequence, how does the “pre-steady-state target cleavage rate” value [1, 3] read?
Answer: 0.00146 ± 0.0024

Question: What about the “pre-steady-state target cleavage rate” value [2, 4] of the same sequence?
Answer: 0.0137 ± 0.0042

Question: UCCUGGAUGUCGAACCAUAGUAUAAAGUUA was tested. Which “pre-steady-state target cleavage rate” value [1, 3] did it give?
Answer: 0.000165 ± 0.026

Question: What about the “pre-steady-state target cleavage rate” value [2, 4] of the same sequence?
Answer: 0.000252 ± 0.023

Question: UCCUGGAUGUCGAAGCAUAGUAUUAGUUA was tested. Which “pre-steady-state target cleavage rate” value [1, 3] did it give?
Answer: 0.000225 ± 0.015

Question: And the “pre-steady-state target cleavage rate” value [2, 4]?
Answer: 0.000213 ± 0.01

Question: What does the source list for UCCUGGAUGUCCUUGCAUAGUUAAUAGUAA?
Answer: pre-steady-state target cleavage rate [1, 3]: 0.00107 ± 0.005; pre-steady-state target cleavage rate [2, 5]: 0.000354 ± 0.024

Question: For UCCUGGAUGUCGAAGCAUAGUAUUUGGUUA, which “pre-steady-state target cleavage rate” value [1, 3] is on record?
Answer: 0.000939 ± 0.0068

Question: What about the “pre-steady-state target cleavage rate” value [2, 4] of the same sequence?
Answer: 0.00039 ± 0.0089

Question: For UCCUGGAUGUCGAACCAUAGUAUUUAGUGUA, which “pre-steady-state target cleavage rate” value [1, 3] is on record?
Answer: 0.000347 ± 0.017

Question: What about the “pre-steady-state target cleavage rate” value [2, 4] of the same sequence?
Answer: 0.000189 ± 0.019

Question: Which “pre-steady-state target cleavage rate” value [1, 3] does the source give for UCCUGGAUGUCGAUCCAUAGUAUUUAGAUA here?
Answer: 0.00028 ± 0.017

Question: And the “pre-steady-state target cleavage rate” value [2, 4]?
Answer: 0.000176 ± 0.015

Question: Which “pre-steady-state target cleavage rate” value [1, 3] does the source give for UCCUCCUAGAGCUUGCAUAGUAUUUACAAA here?
Answer: 0.00231 ± 0.0035

Question: And the “pre-steady-state target cleavage rate” value [2, 4]?
Answer: 0.00252 ± 0.0019

Question: For UCCUGGAUGUCGAACGUUAGUAUUUAUGUUA, which “pre-steady-state target cleavage rate” value [1, 6] is on record?
Answer: 0.0002 ± 0.028

Question: And the “pre-steady-state target cleavage rate” value [2, 5]?
Answer: < 0.0001

Question: Which results are given for UCCUGGAUGUCGAACGAGAGUAUUUAGUUA?
Answer: pre-steady-state target cleavage rate [1, 3]: 0.000319 ± 0.013; pre-steady-state target cleavage rate [2, 4]: 0.000484 ± 0.0099

Question: For UCCUGGAUGUCCUUGCAUACUAAUUAGUUA, which “pre-steady-state target cleavage rate” value [1, 3] is on record?
Answer: 0.00145 ± 0.005

Question: What about the “pre-steady-state target cleavage rate” value [2, 4] of the same sequence?
Answer: 0.00235 ± 0.0046

Question: Which results are given for UCCUGGAUGUCGUGUGCAUAGUAUUUAGUUA?
Answer: pre-steady-state target cleavage rate [1, 3]: 0.00228 ± 0.006; pre-steady-state target cleavage rate [2, 5]: 0.000795 ± 0.011

Question: What does the source list for UCCUGGAUGUCCUUGCAUAGUAUAUUAGUUA?
Answer: pre-steady-state target cleavage rate [1, 3]: 0.0026 ± 0.0039; pre-steady-state target cleavage rate [2, 4]: 0.00281 ± 0.0034

Question: UCCUGGAUGUCGAUGCAUUGUAUUUAGUUA was tested. Which “pre-steady-state target cleavage rate” value [1, 3] did it give?
Answer: 0.000873 ± 0.0083

Question: And the “pre-steady-state target cleavage rate” value [2, 4]?
Answer: 0.000928 ± 0.0061

Question: How did the “pre-steady-state target cleavage rate” value [1, 3] turn out when UCCUGGAUGUCGUUUCAUAGUAUUUAGUUA was run?
Answer: 0.00066 ± 0.0085

Question: And the “pre-steady-state target cleavage rate” value [2, 4]?
Answer: 0.000338 ± 0.015

Question: For UCCUGGUACAGCAUCCAUAGUAUUUAGUUA, which “pre-steady-state target cleavage rate” value [1, 3] is on record?
Answer: 0.00138 ± 0.0048

Question: And the “pre-steady-state target cleavage rate” value [2, 4]?
Answer: 0.0017 ± 0.0028

Question: What does the source list for UCCUGGAUGUCGAACGUUAGUUAAUAGUUA?
Answer: pre-steady-state target cleavage rate [1, 6]: 0.000277 ± 0.026; pre-steady-state target cleavage rate [2, 4]: 0.00015 ± 0.037
